PMC5716712

The chains behind the UniProt entries cited, without tags or fusion partners.
UniProt P60484: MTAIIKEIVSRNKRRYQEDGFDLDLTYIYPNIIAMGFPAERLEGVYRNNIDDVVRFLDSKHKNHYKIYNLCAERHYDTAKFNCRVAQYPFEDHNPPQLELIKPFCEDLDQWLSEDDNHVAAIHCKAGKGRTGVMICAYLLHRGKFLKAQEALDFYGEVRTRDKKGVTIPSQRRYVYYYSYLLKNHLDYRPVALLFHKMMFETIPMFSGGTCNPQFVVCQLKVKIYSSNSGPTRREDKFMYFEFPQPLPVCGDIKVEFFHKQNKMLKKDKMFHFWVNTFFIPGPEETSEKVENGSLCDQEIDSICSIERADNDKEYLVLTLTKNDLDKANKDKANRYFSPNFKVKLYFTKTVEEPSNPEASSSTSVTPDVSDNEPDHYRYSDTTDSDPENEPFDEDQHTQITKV

Biological target: S-HA-PTEN (UniProt P60484)
Assay: affinity purification with mass spectrometry; cells transfected with S-HA tagged genes, lysed in cold 0.5% NP40 buffer (pH 8.0 Tris 10 mM, NaCl 150 mM), S Tag beads 4°C overnight, washed with 0.1% NP40 buffer, SDS-PAGE and LC-MS

B1: MAD1 (protein, UniProt Q9Y6D9 1-718)
chain: MEDLGENTMVLSTLRSLNNFISQRVEGGSGLDISTSAPGSLQMQYQQSMQLEERAEQIRSKSHLIQVEREKMQMELSHKRARVELERAASTSARNYEREVDRNQELLTRIRQLQEREAGAEEKMQEQLERNRQCQQNLDAASKRLREKEDSLAQAGETINALKGRISELQWSVMDQEMRVKRLESEKQELQEQLDLQHKKCQEANQKIQELQASQEARADHEQQIKDLEQKLSLQEQDAAIVKNMKSELVRLPRLERELKQLREESAHLREMRETNGLLQEELEGLQRKLGRQEKMQETLVGLELENERLLAKLQSWERLDQTMGLSIRTPEDLSRFVVELQQRELALKDKNSAVTSSARGLEKARQQLQEELRQVSGQLLEERKKRETHEALARRLQKRVLLLTKERDGMRAILGSYDSELTPAEYSPQLTRRMREAEDMVQKVHSHSAEMEAQLSQALEELGGQKQRADMLEMELKMLKSQSSSAEQSFLFSREEADTLRLKVEELEGERSRLEEEKRMLEAQLERRALQGDYDQSRTKVLHMSLNPTSVARQRLREDHSQLQAECERLRGLLRAMERGGTVPADLEAAAASLPSSKEVAELKKQVESAELKNQRLKEVFQTKIQEFRKACYTLTGYQIDITTENQYRLTSLYAEHPGDCLIFKATSPSGSKMQLLETEFSHTVGELIEVHLRRQDSIPAFLSSLTLELFSRQTVA
**Q.** Which binding does the source give for B1 here?
**A.** binds

No constants are given. Whether binding was seen depends on the method and setting. Binding seen in cells or lysates may run through a third protein. Here binding means that the protein was enriched with, or labelled near, the bait; the list need not be complete.
